The other results are listed elsewhere or left out. Further columns of the screen follow, without active or inactive calls. Most of these compounds were active or inconclusive in the main read-out, so they are no random draw. Potencies come from curve fits of mixed quality, noted in brackets.
Assay: qHTS Assay for Modulators of Lamin A Splicing
Conditions: HeLa LMNA splicing GFP/RFP minigene ratio, 48 h
Outline: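 Read-out is the ratio of GFP to DsRed2 object intensity, acquired by 488 nm laser-scanning cytometry on HeLa lamin A-EGFP minigene reporter cells. Compound incubation 48 hrs at 37 °C in Opti-MEM with 2% FBS; DMSO 0.5% final.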

[1] = measured here: RFP viability control channel
[2] = measured here: GFP splicing reporter channel

In the case of `Cc1cc(C)c(NC(=S)NCCCSC2CCCCC2)c(C)c1`, the AC50 [1] is reported as 5.62 µM [falling, partial curve].
For `O=C(Nc1ccc(S(=O)(=O)NCc2cccnc2)cc1)c1ccco1`, the AC50 [1] was 11.2 µM [rising, partial curve].
With `CCOC(=O)NC(=O)CSc1nc(-c2ccc(C)c(C)c2)cn1-c1ccccc1` the AC50 [1] was 31.6 µM [rising, single point].
For `O=C(Nc1ccc(N2CCOCC2)cc1)c1cc2c(s1)CCCC2`, the AC50 [2] was 0.398 µM [falling, full curve, poor fit] and the AC50 [1] was 0.251 µM [falling, partial curve, poor fit].
For `Cc1nn(CC(=O)NCc2ccc(OC(C)C)cc2)c(=O)c2c(C)n(-c3ccc(Cl)cc3)nc12`, the AC50 [2] was 0.447 µM [rising, partial curve, poor fit].
In the case of `CN(CC(=O)O/N=C(\N)c1ccc([N+](=O)[O-])cc1)S(=O)(=O)c1ccccc1`, the AC50 [2] is reported as 25.1 µM [rising, single point] and the AC50 [1] is reported as 35.5 µM [rising, single point].
In the case of `COc1ccc(NCc2nnc(SCC(=O)Nc3ccccc3)n2C)cc1`, the AC50 [1] is reported as 0.447 µM [falling, full curve, poor fit].
In the case of `COc1cccc(C2=Nc3cccc4cccc(c34)N2)c1`, the AC50 [1] is reported as 0.891 µM [rising, partial curve].
For `Cc1ccc(N2C(N)=C(C#N)C3(C(=O)N(C)c4ccccc43)C3=C2CC(C)(C)CC3=O)cc1Cl` (stereo not drawn), the AC50 [1] was 17.8 µM [rising, single point].
With `CS(=O)(=O)N1CCCC(C(=O)Nc2ccc3c(c2)OCCO3)C1` (stereo not drawn) the AC50 [2] was 5.62 µM [rising, single point].
With `CC(=O)O[C@@H]1C(=O)[C@@]2(C)[C@H](O)C[C@H]3OC[C@]3(OC(C)=O)[C@@H]2[C@H](OC(=O)c2ccccc2)[C@@]2(O)C[C@H](OC(=O)[C@@H](O)[C@@H](NC(=O)c3ccccc3)c3ccccc3)C(C)=C1C2(C)C` (stereo in doubt) the AC50 [2] was 0.0631 µM [falling, full curve] and the AC50 [1] was 0.0631 µM [falling, full curve].
With `Cc1cccn2c(=O)cc(COc3cccc(NC(=O)c4ccccc4F)c3)nc12` the AC50 [2] was 11.2 µM [falling, partial curve] and the AC50 [1] was 22.4 µM [falling, partial curve].
With `O=C(Nc1ccc(Cl)c(Cl)c1)N1CCC(c2ccccc2)C1` (stereo not drawn) the AC50 [2] was 12.6 µM [rising, partial curve] and the AC50 [1] was 35.5 µM [rising, partial curve].
With `Cc1ccc(-n2nc(C(=O)Nc3ccc(F)cc3Cl)c(=O)n(C)c2=O)cc1` the AC50 [2] was 0.00355 µM [falling, full curve, poor fit] and the AC50 [1] was 0.00316 µM [falling, full curve, poor fit].
For `CC(C)NS(=O)(=O)c1ccc(OCC(=O)Nc2cccc(F)c2)cc1`, the AC50 [2] was 8.91 µM [falling, partial curve].
For `O=C(O)c1ccc(-c2nc(-c3ccc(Cl)cc3)cs2)cc1`, the AC50 [2] was 35.5 µM [falling, single point].
In the case of `O=C(NCc1ccccc1F)c1ccc(S(=O)(=O)Nc2cccc(C(F)(F)F)c2)cc1`, the AC50 [1] is reported as 6.31 µM [rising, full curve, poor fit].
For `Cc1ccc(S(=O)(=O)N2CC=C(c3c(C)n(C)c4ccccc34)CC2)cc1`, the AC50 [1] was 2.82 µM [rising, partial curve].
In the case of `CC1(C)CC(N2CCCC2)=CC(=[N+]2CCCCCC2)C1`, the AC50 [2] is reported as 0.891 µM [falling, full curve, poor fit] and the AC50 [1] is reported as 1.26 µM [falling, full curve, poor fit].
For `CCn1c(C)nc2cc(S(=O)(=O)C(F)(F)F)ccc21`, the AC50 [1] was 14.1 µM [rising, partial curve, poor fit].
For `COC(=O)c1cc(O)c(OCc2ccccc2)c(O)c1`, the AC50 [1] was 25.1 µM [rising, single point].
For `CCOC(=O)N1CCC(N2C(=O)c3ccc(C(=O)NCc4ccc(F)cc4)cc3C2=O)CC1`, the AC50 [1] was 14.1 µM [rising, single point].
With `CCOP(=O)(OCC)C(NC(=O)Nc1cccc(Cl)c1)C(N)=O` (stereo not drawn) the AC50 [1] was 0.0282 µM [rising, full curve, poor fit].
For `Cc1nc2sc(C(c3cccs3)N3CCN(c4cccc(Cl)c4)CC3)c(O)n2n1` (stereo not drawn), the AC50 [2] was 22.4 µM [rising, single point] and the AC50 [1] was 14.1 µM [rising, partial curve, poor fit].
In the case of `O=C(NC(=S)Nc1ccc2c(c1)OCCO2)c1cccc(Br)c1`, the AC50 [2] is reported as 0.112 µM [rising, full curve, poor fit] and the AC50 [1] is reported as 0.316 µM [rising, partial curve, poor fit].
In the case of `C/C(=N\NC(N)=O)c1cccc(Cl)c1`, the AC50 [2] is reported as 3.16 µM [falling, full curve, poor fit].
For `COc1ccc(OC)c(/C=C/C(=O)Nc2ccc3c(c2)CCC3)c1`, the AC50 [2] was 15.8 µM [rising, single point] and the AC50 [1] was 35.5 µM [rising, single point].
For `Cn1c(=O)c2c(nc(NCCc3ccccc3)n2Cc2ccccc2)n(C)c1=O`, the AC50 [2] was 22.4 µM [rising, single point] and the AC50 [1] was 35.5 µM [rising, single point].
In the case of `O=C(NCc1ccccn1)[C@H]1C[C@@H]1[C@H](NP(=O)(c1ccccc1)c1ccccc1)c1ccccc1`, the AC50 [1] is reported as 31.6 µM [rising, single point].
In the case of `CCOC(=O)CNC(=O)c1sc(NC(=O)c2cccc(F)c2)nc1C`, the AC50 [2] is reported as 12.6 µM [rising, partial curve].
With `Cc1ccc(C)c(N2CCN(C(=O)c3cnn(C(C)(C)C)c3C3CCN(C(=O)OC(C)(C)C)CC3)CC2)c1` the AC50 [2] was 35.5 µM [falling, single point] and the AC50 [1] was 35.5 µM [falling, single point].
In the case of `CN(c1ccccc1)S(=O)(=O)c1ccc(C(=O)Nc2nnc(C3CC3)o2)cc1`, the AC50 [1] is reported as 31.6 µM [rising, single point].
For `COc1cc(/C=C2/NC(=O)N(CC(=O)Nc3ccc(C)cc3)C2=O)ccc1Oc1ccc([N+](=O)[O-])cn1`, the AC50 [1] was 0.00141 µM [falling, full curve, poor fit].
For `OCCNC(=S)Nc1ccc2nsnc2c1`, the AC50 [1] was 2.82 µM [falling, partial curve].
In the case of `Cn1c(=O)c([N+](=O)[O-])c(Cl)c2ccccc21`, the AC50 [2] is reported as 0.891 µM [falling, partial curve, poor fit] and the AC50 [1] is reported as 17.8 µM [falling, partial curve, poor fit].
For `CCS(=O)(=O)N1CCN(c2ccc([N+](=O)[O-])c(N3CCOCC3)c2)CC1`, the AC50 [1] was 3.98 µM [falling, partial curve].
In the case of `COc1ccc(C)cc1NC(=O)N1CCC(CN2CCOCC2)CC1`, the AC50 [1] is reported as 0.02 µM [falling, full curve, poor fit].
In the case of `COc1ccc(OC)c(N(CC(=O)N2CCN(c3cc(Cl)ccc3C)CC2)S(C)(=O)=O)c1`, the AC50 [1] is reported as 35.5 µM [rising, single point].
With `Cn1cccc1C(C#N)c1ncc(C(F)(F)F)cc1Cl` (stereo not drawn) the AC50 [2] was 2.82 µM [falling, partial curve] and the AC50 [1] was 3.16 µM [falling, partial curve, poor fit].
With `CCOc1ccc2[nH]c(=O)c(CN(CCc3ccccc3)C(=O)N3CCOCC3)cc2c1` the AC50 [2] was 35.5 µM [falling, single point] and the AC50 [1] was 11.2 µM [falling, partial curve].
In the case of `O=C(Cn1cc([N+](=O)[O-])cn1)NCC1CCCO1` (stereo not drawn), the AC50 [2] is reported as 11.2 µM [rising, single point].
For `COc1ccc(/C=N/NC(=O)c2ccc(NC(=O)c3ccccc3Br)cc2)cc1`, the AC50 [1] was 0.0398 µM [falling, full curve, poor fit].
For `CS(=O)(=O)N(CC(=O)Nc1c(F)cccc1F)c1cccc([N+](=O)[O-])c1`, the AC50 [1] was 3.98 µM [falling, partial curve].
With `O=C(N/N=C/c1cccc(Cl)c1Cl)Nc1ccccc1` the AC50 [2] was 22.4 µM [rising, partial curve, poor fit] and the AC50 [1] was 14.1 µM [rising, partial curve, poor fit].
For `O=C(COc1ccc(-c2ccccc2)cc1)N1CCCC1`, the AC50 [2] was 17.8 µM [falling, single point] and the AC50 [1] was 15.8 µM [falling, single point].
With `Cc1cccc(NC(=O)c2ccccc2O)c1C` the AC50 [2] was 11.2 µM [rising, partial curve, poor fit] and the AC50 [1] was 17.8 µM [rising, single point].
With `O=C(COc1ccc(S(=O)(=O)N2CCCC2)cc1)NCC1CCCO1` (stereo not drawn) the AC50 [2] was 0.0316 µM [falling, full curve, poor fit].
In the case of `Cc1ccc(CCNC(=O)c2sc3ncccc3c2-n2c(C)ccc2C)cc1`, the AC50 [1] is reported as 17.8 µM [rising, partial curve, poor fit].
With `CSc1nn(CCc2ccncc2)c(=S)s1` the AC50 [2] was 12.6 µM [falling, partial curve] and the AC50 [1] was 28.2 µM [falling, single point].
For `CCCC(=O)N1N=C(c2ccccc2)CC1c1cn(C)c2ccccc12` (stereo not drawn), the AC50 [2] was 15.8 µM [rising, single point] and the AC50 [1] was 22.4 µM [rising, single point].
With `CCOC(=O)C1(Cc2cccc(Cl)c2)CCCN(C2CCN(C(C)=O)CC2)C1` (stereo not drawn) the AC50 [1] was 0.0316 µM [falling, full curve, poor fit].
For `Cc1ccc(C)c(NC(=S)NCCSc2ccc(Cl)cc2)c1`, the AC50 [2] was 22.4 µM [rising, single point] and the AC50 [1] was 35.5 µM [rising, single point].

From PubChem BioAssay AID1487 (National Center for Advancing Translational Sciences (NCATS), 2009)
